Literature values in US12466835B1, “Solid forms of macrocyclic compounds, salts and formulations thereof, and methods of preparing and using the same” (Kura Oncology, Inc., priority 2023, dated 2025).
For at least one compound, name, drawing or mass did not settle the structure.

System: HRAS mutant metastatic urothelial carcinoma
Details: HRAS mutant metastatic urothelial carcinoma patients treated with tipifarnib; cited from earlier work

Compound: Cn1cncc1[C@@](N)(c1ccc(Cl)cc1)c1ccc2c(c1)c(-c1cccc(Cl)c1)cc(=O)n2C [tipifarnib]
- patients with objective response: 24%
